PubChem BioAssay AID720505 | Drosophila RNAi Screening Center, 2013
Aim: 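Knock-downs that reduce calcium influx once internal stores are emptied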 (primary screen). Cells: Drosophila S2R+ cells. Reagent: long dsRNA against Drosophila genes. Challenge: thapsigargin (2 µM) in calcium-free buffer to empty internal stores, then 2 mM calcium added back. Read-out: 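Fluo-4 signal in 384-well plates read on a FLIPR after thapsigargin (2 µM, calcium-free) store depletion and 2 mM calcium add-back; unnormalised mean endpoint per well; screen run twice, selected wells retested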. Reading the numbers: calcium signal and retest calcium signal: higher = more calcium entry after store depletion. Call rule: 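About 1500 genes called as lowering calcium entry, by varying amounts, judged against per-plate control wells with STIM1 as positive and Rho1 as negative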. Meaning of the calls: active = called as lowering calcium entry; inactive = not called.
In all, the deposit lists about 20,000 reagents; shown is an unselected part of those with a known target gene and a result. Over the whole deposit, about 2,100 (10%) are marked active. 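Raw plate signals without normalisation; calls rest on control-based scores that were not deposited; replicate 2 separates called from uncalled poorly.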 Not given: the amount of reagent, the time to read-out.

target gene | DRSC id | calcium signal, replicate 1 | calcium signal, replicate 2 | retest calcium signal, replicate 1 | retest calcium signal, replicate 2 | call
CG8519 | DRSC10985 | 81.2 | 60.7 | – | – | inactive
CG34221 | DRSC06150 | 87.8 | 119 | – | – | inactive
PI31 | DRSC07306 | 163 | 236 | – | – | inactive
CG33341 | DRSC22887 | 96.4 | 196 | – | – | inactive
Tim17a2 | DRSC12252 | 102 | 156 | – | – | inactive
CG31189 | DRSC16198 | 188 | 133 | – | – | inactive
PIG-A | DRSC06982 | 171 | 122 | – | – | inactive
CycY | DRSC02420 | 114 | 103 | – | – | inactive
CSN1b | DRSC11108 | 106 | 101 | – | – | inactive
CG15740 | DRSC19706 | 52.3 | 103 | – | – | active
CG15740 | DRSC23079 | 85.3 | 120 | – | – | inactive
GC | DRSC08396 | 83.6 | 139 | – | – | inactive
baf | DRSC03051 | 140 | 146 | – | – | inactive
mthl6 | DRSC10234 | 114 | 99.3 | – | – | inactive
fuss | DRSC17200 | 114 | 129 | – | – | inactive
fuss | DRSC21452 | 161 | 75.7 | – | – | inactive
Taldo | DRSC04320 | 134 | 121 | – | – | inactive
CG14693 | DRSC14916 | 160 | 93.2 | – | – | inactive
dac | DRSC03518 | 90.4 | 88.2 | – | – | inactive
Ggt-1 | DRSC19993 | 136 | 183 | – | – | inactive
Pof | DRSC04405 | 72.2 | 196 | – | – | active
Pus7 | DRSC10703 | 101 | 92.3 | – | – | inactive
amx | DRSC18736 | 112 | 89.7 | – | – | inactive
Elp3 | DRSC00448 | 95.8 | 126 | – | – | inactive
fau | DRSC16943 | 90.5 | 99.2 | – | – | inactive
fau | DRSC16944 | 141 | 87.9 | – | – | inactive
fau | DRSC16945 | 142 | 99.5 | 5716 | 139 | inactive
fau | DRSC22360 | 96.8 | 246 | – | – | inactive
Achl | DRSC06665 | 93.1 | 140 | – | – | inactive
Fbxo42 | DRSC04529 | 92.3 | 101 | – | – | inactive
Atat | DRSC10392 | 87.3 | 155 | – | – | inactive
CG9294 | DRSC04537 | 188 | 127 | – | – | inactive
CG11679 | DRSC19415 | 131 | 116 | – | – | inactive
MFS18 | DRSC00452 | 135 | 206 | – | – | inactive
Abd-B | DRSC14098 | 140 | 167 | – | – | inactive
Abd-B | DRSC14337 | 133 | 182 | – | – | inactive
PPO3 | DRSC04325 | 148 | 103 | – | – | inactive
CR31824 | DRSC01517 | 161 | 113 | – | – | inactive
Vdup1 | DRSC08586 | 114 | 115 | – | – | inactive
RagA-B | DRSC14450 | 95.6 | 134 | – | – | inactive
CysRS | DRSC05948 | 198 | 124 | 82.3 | 123 | inactive
ssh | DRSC16730 | 152 | 129 | – | – | inactive
CG43163 | DRSC10748 | 61.3 | 62.6 | – | – | active
Vinc | DRSC18728 | 89.4 | 132 | – | – | inactive
CG3106 | DRSC18279 | 141 | 148 | – | – | inactive
wfs1 | DRSC15676 | 137 | 134 | – | – | inactive
CG14223 | DRSC19580 | 212 | 84.7 | – | – | inactive
Fpgs1 | DRSC19857 | 75.1 | 111 | – | – | inactive
CG11247 | DRSC11643 | 100 | 97.4 | 187 | 144 | inactive
CG11247 | DRSC21901 | 131 | 210 | – | – | inactive
CtsL4 | DRSC02849 | 165 | 133 | – | – | inactive
TfIIEbeta | DRSC08701 | 109 | 102 | – | – | inactive
CG30416 | DRSC04565 | 62.8 | 201 | – | – | active
Mulk | DRSC02658 | 94.3 | 124 | – | – | inactive
CngA | DRSC06580 | 120 | 138 | – | – | inactive
CngA | DRSC07362 | 202 | 138 | – | – | inactive
